Library screen at single concentrations

The chains behind the UniProt entries cited, without tags or fusion partners. Residues count along the entry.
UniProt Q4DA54, 1-478: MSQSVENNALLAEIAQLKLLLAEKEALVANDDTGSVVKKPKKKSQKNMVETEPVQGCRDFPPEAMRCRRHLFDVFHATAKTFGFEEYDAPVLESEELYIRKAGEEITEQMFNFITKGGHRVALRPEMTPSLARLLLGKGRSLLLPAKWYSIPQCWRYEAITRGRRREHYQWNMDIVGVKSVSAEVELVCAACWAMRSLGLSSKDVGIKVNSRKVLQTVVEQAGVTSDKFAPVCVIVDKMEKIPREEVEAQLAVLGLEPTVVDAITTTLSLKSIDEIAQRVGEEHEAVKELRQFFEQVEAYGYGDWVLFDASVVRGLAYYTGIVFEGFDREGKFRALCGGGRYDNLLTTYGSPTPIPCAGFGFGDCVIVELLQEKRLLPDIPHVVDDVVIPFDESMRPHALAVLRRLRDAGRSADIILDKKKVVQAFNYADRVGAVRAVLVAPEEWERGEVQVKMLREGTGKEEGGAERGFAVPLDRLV

Results are given as percent effect.
How 0% and 100% were set is not recorded. Most values in the screen are low, and negative values occur.
The compounds are a random part of those screened.

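Histidine-tRNA ligase, Trypanosoma cruzi CL Brener (UniProt Q4DA54). Enzyme assay of histidyl-tRNA synthetase; the read-out is not stated. Concentration: 30 µM. Direction is inferred from retests: higher values go with stronger inhibition. Size under these conditions: about 69,000 compounds, about 31 of them at 50% or above in at least one test.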

| # | structure | Percent Effect |
|---|---|---|
| 1 | `Cc1cc(C)nc(NC(=O)NCCCSc2nncn2C)n1` | 4.663 |
| 2 | `COc1ccc(-c2n[nH]cc2CN(C)CCc2scnc2C)c(F)c1` | -1.064 |
| 3 | `N#CC1(NC(=O)c2nccc3ccccc23)CCC2(CC1)OCCO2` | -18.63 |
| 4 | `CCc1nc(CN(Cc2cccs2)CC2CCCO2)no1` (configuration not stated) | 5.639 |
| 5 | `Cc1ccc2nc(-c3cnc(N)nc3)cc(C(=O)N(C)C)c2c1` | 7.778 |
| 6 | `CC(=O)Nc1nc(C)c(S(=O)(=O)NCCc2cccnc2)s1` | 3.39 |
| 7 | `Cn1ccnc1CN1CCCCC1c1nc(-c2ccccc2)no1` (configuration not stated) | -1.149 |
| 8 | `Cn1cnn(Cc2c(F)cccc2Br)c1=O` | 3.922 |
| 9 | `CN(C)C(=O)C1CCCN1CCCNC(=O)Cc1ccccc1F` (configuration not stated) | 3.659 |
| 10 | `CC(C)(C)C(=O)NCC(=O)NC1CC(c2cccc(Cl)c2)C1` (configuration not stated) | 6.077 |
| 11 | `COc1cc(N2C[C@@H]3COC[C@]3(C(=O)NC3CC(F)(F)C3)C2)ncn1` | 4.301 |
| 12 | `CC(C)(C)n1ncc2c(=O)n(CC(=O)NCc3ccccc3)cnc21` | 6.186 |
| 13 | `CCc1nsc(N2CCN(C(=O)c3ccnc(N(C)C)c3)CC2)n1` | 0 |
| 14 | `Cc1cc(CN2CCC(CNC(=O)c3cnc(C)nc3C)C2)[nH]n1` (configuration not stated) | 0 |
| 15 | `CN(C)C(=O)c1nc(-c2ccc(S(C)(=O)=O)cc2)c2cnccn12` | 10.06 |
| 16 | `CCn1cnnc1CNC(=O)Cc1ccc2c(c1)OCCO2` | 1.433 |
| 17 | `COCc1noc(CN2C(=O)OC[C@@H]2C(C)C)n1` | 10.84 |
| 18 | `Cc1nn2cccnc2c1C(=O)NCc1ccnc(OCC2CC2)c1` | 7.879 |
| 19 | `CC1N(C)C(=O)COC12CCN(C(=O)CCc1ccccc1)CC2` (configuration not stated) | 6.329 |
| 20 | `COc1c(NS(=O)(=O)c2cc(C)ccc2C)c(C)nn1C` | 2.174 |
| 21 | `CC1(C)CC1(C(=O)N1CC(c2cccnc2)C1)c1ccccc1F` (configuration not stated) | 10.71 |
| 22 | `Cc1ccnc(NC(=O)C2CCN(CCCn3ccnc3)CC2)c1` | -0.5848 |
| 23 | `COCCn1cc(NCc2c[nH]nc2C(C)(C)C)cn1` | 2.062 |
| 24 | `CN(C)C(CNC(=O)NCc1ccco1)c1cccs1` (configuration not stated) | 10.39 |
| 25 | `COc1ccc(C(=O)C2CCCN(c3cc(N)ncn3)C2)c(C)c1` (configuration not stated) | 13.13 |
| 26 | `c1cnn(CC2CCCN2Cc2ccc(-n3cccn3)cc2)c1` (configuration not stated) | 9.143 |
| 27 | `O=S1(=O)C[C@@H]2[C@H](C1)N(Cc1ncc[nH]1)CCN2CCCc1ccccc1` | 0.8333 |
| 28 | `C=C(C)Cn1ccc2cc(OC)c(F)cc2c1=O` | 2.521 |
| 29 | `CCNc1ncc(C(=O)NCc2csc(C)n2)cn1` | 2.469 |
| 30 | `Cc1nc2cc(F)ccc2cc1C(=O)N1CCN(CC(C)O)CC1` (configuration not stated) | 6.897 |
| 31 | `Cc1csc(CNC(=O)NCC(C)Cn2nc(C)cc2C)n1` (configuration not stated) | 8.333 |
| 32 | `Cc1cc(NCCNS(=O)(=O)c2cccc(Cl)c2)nc(C)n1` | 8.081 |
| 33 | `CCOc1c(Br)cc(/C=C/c2ncc(C(=O)O)s2)cc1OC` | 2.579 |
| 34 | `Cc1cnc(N2C[C@@H]3[C@@H](C2)OCC(=O)N3CC2CC2)nc1` | 0 |
| 35 | `O=c1ccc2c(n1Cc1cccnc1)CCN(Cc1ccoc1)CC2` | 13.07 |
| 36 | `COC(=O)CNC(=O)C1CCN(S(C)(=O)=O)CC1` | 2.762 |
| 37 | `O=C(c1ccoc1)N1CC[C@@H]2O[C@@H](COCc3ccncc3)CC[C@@H]21` | 14.29 |
| 38 | `COc1ccccc1CN(Cc1nc2c(cnn2C)c(=O)[nH]1)C1CC1` | -3.448 |
| 39 | `Cc1cc(C(=O)Nc2ccn(CCCN3CCCC3)n2)c(C)o1` | 13.86 |
| 40 | `COc1cccc(-c2ccnc3nc(N4CCCCC4)[nH]c(=O)c23)c1` | 2.959 |
| 41 | `CN(C)c1nc2c(c(N3CCCC3)n1)CCN(C(=O)c1ccc[nH]1)CC2` | 4.04 |
| 42 | `CCCc1ccc(CN2CCN(C(=O)C(C)C)[C@@H]3CS(=O)(=O)C[C@@H]32)o1` | -2.521 |
| 43 | `O=C(CCCn1cccn1)N1CCCC(n2cncn2)C1` (configuration not stated) | -2.609 |
| 44 | `Cc1cc(O)cc(=O)n1CCCC(=O)Nc1n[nH]c2cccc(F)c12` | 11 |
| 45 | `CCC(C(=O)NCc1ccncc1)N(c1ccc(OC)cc1)S(C)(=O)=O` (configuration not stated) | -0.4149 |
| 46 | `c1csc(CN2CCCn3cnc(CN4CCCC4)c3C2)c1` | 5.911 |
| 47 | `CN[C@@H](C)C(=O)N(Cc1cccc(C)c1)Cc1ccccc1OC` | 3.012 |
| 48 | `Cc1cccc(C)c1OCCC(=O)N1CCC(c2nncn2C)CC1` | 1.527 |
| 49 | `Cc1ccc(CN2CC[C@H]3C[C@H](C(=O)N4CCCO4)O[C@@H]3C2)o1` | 3.226 |
| 50 | `O=C(Nc1ccccc1)c1ccc2c(c1)C1(CCCCC1)CN2` | 7.216 |
| 51 | `Cc1nn(C)c(N(C)C)c1CNC1CCOc2c(Cl)cccc21` (configuration not stated) | 4.142 |
| 52 | `C=C(C)CNC1CCCN(Cc2noc(C3CC3)n2)C1` (configuration not stated) | 4.103 |
| 53 | `CC[C@H](C)[C@@H](CO)NC(C)Cc1ccc(C)cc1` (some centres not stated) | 5 |
| 54 | `CN(Cc1csc(-c2cccs2)n1)C(=O)CCn1ccccc1=O` | 2.905 |
| 55 | `CC(C)c1ncc2c(n1)CN(Cc1nc(-c3ccccn3)no1)CC2` | 3.488 |
| 56 | `Cc1cccc(N2Cc3c(NC4CCCC4)ncnc3N(C)CC2=O)c1` | 5.325 |
| 57 | `Cn1cccc1C(=O)N1CCCC2(CCCN2S(C)(=O)=O)C1` (configuration not stated) | -94.25 |
| 58 | `CN(C)c1cc(C2CCCN(C(=O)Cn3cc(Cl)cn3)C2)ccn1` (configuration not stated) | 4.563 |
| 59 | `Cc1cc(C(=O)NCCC2CCN(C)CC2)ccc1N(C)S(C)(=O)=O` | 2.381 |
| 60 | `CN1CC(=O)N(c2ccsc2)CC12CCN(C(=O)c1cccn1C)C2` (configuration not stated) | 5.882 |
| 61 | `COc1ccc(Cl)cc1C(=O)NCCNc1cnccn1` | 5.814 |
| 62 | `Cc1noc(C)c1CN(C)C(=O)Nc1cnn(CC2CCCO2)c1` (configuration not stated) | 2.051 |
| 63 | `Cc1ccc2c(c1)C(NC(C)C)CC21CCNCC1` (configuration not stated) | 7.527 |
| 64 | `COc1cccc(CN(C)C(=O)CSc2ccc3c(c2)OCCO3)c1` | -3.261 |
| 65 | `Cc1ccnn1CCNC(=O)C1CCN(S(=O)(=O)c2ccc(F)cc2)C1` (configuration not stated) | 5.323 |
| 66 | `Cc1cc(CN2C[C@@H]3CCCO[C@@H]3[C@H](N(C)C(C)C)C2)no1` | 8.602 |
| 67 | `CC(=O)N1CCC(C(=O)N(CC(F)F)c2cccc(Cl)c2)CC1` | 0 |
| 68 | `O=C(CCc1nccs1)N1CCCC(N2CCNC2=O)C1` (configuration not stated) | 2.479 |
| 69 | `Cc1nc(C2CCN(C(=O)CO)CC2)cc(N2CCOCC2)n1` | -0.8264 |
| 70 | `CCC(O)CN1CCN(C(=O)c2sccc2C(C)C)CC1` (configuration not stated) | 0.8547 |
| 71 | `CCN1CCCC(O)(CN(C)Cc2ccccc2F)C1` (configuration not stated) | 10.31 |
| 72 | `Cc1c(C2CC(=O)Nc3c2cnn3C(C)(C)C)cnn1C` (configuration not stated) | 7.273 |
| 73 | `Cc1noc(C)c1CNc1cccc(C(=O)N2CCCC(O)C2)c1` (configuration not stated) | 2.186 |
| 74 | `COc1ccc(CNC(=O)NC2CCN(C)CC2)c(C(F)(F)F)c1` | 2.632 |
| 75 | `CNC(=O)COc1cccc(CNC(=O)c2c(C)noc2C(C)C)c1` | 2.874 |
| 76 | `CCc1ccc2nc(C)cc(C(=O)N[C@@H]3CNC[C@H]3O)c2c1` | 6.173 |
| 77 | `c1ccc(-c2noc(CN3CCc4cncnc4C3)n2)nc1` | 5.703 |
| 78 | `CN(C)C(=O)c1ccc(-c2cscn2)cc1` | 6.818 |
| 79 | `COCCN1CCC2(CC1)CN(Cc1cccc(C)n1)C(=O)CO2` | 3.738 |
| 80 | `CN(Cc1ccc(Cl)c(Cl)c1)C(=O)CNC(N)=O` | -1.087 |
| 81 | `Cc1ccc2nc(C)c(C)c(C(=O)NCCCn3ccnn3)c2c1` | 12.22 |
| 82 | `N#Cc1cccnc1NCc1cccnc1N1CCC(C(N)=O)CC1` | 0 |
| 83 | `Cc1cc(C(=O)N2CC[C@H]3C[C@H](c4ccncn4)O[C@@H]3C2)no1` | -0.8264 |
| 84 | `COc1ncccc1CNC(=O)N1CCCC1c1ccsc1` (configuration not stated) | 7.493 |
| 85 | `Cn1cc(C(=O)OCC(N)=O)c(-c2ccc(F)cc2F)n1` | 0.578 |
| 86 | `CCC[C@H]1CN(S(=O)(=O)N(C)Cc2ccccc2)C[C@@H]1N` | 1.587 |
| 87 | `COc1ccccc1C(C)N1CCN(S(C)(=O)=O)CC1` (configuration not stated) | -0.5236 |
| 88 | `Cc1nc(CN2CCN(C(=O)CCC(=O)c3ccccc3)CC2)no1` | 1.163 |
| 89 | `Cc1c(CNC(=O)Nc2cccc3c2CCN3C)cnn1C` | 4.972 |
| 90 | `COc1ccc(-c2nnsc2C(=O)N2CCOCC2)cc1` | 6.186 |
| 91 | `OC1(CN2CCCC2)COCCN(c2ncnc3[nH]cnc23)C1` (configuration not stated) | 7.514 |
| 92 | `Clc1cccc(-n2cnnn2)c1N1CCCCC1` | -3.982 |
| 93 | `O=C(NCc1nc[nH]n1)c1cc(COc2cccc(F)c2)[nH]n1` | 7.407 |
| 94 | `CC(C)Oc1cccc(CN2CCC(C(C)N3CCOCC3)CC2)c1` (configuration not stated) | -5.319 |
| 95 | `COCCCNC1CCCN(c2ccc(C)nn2)C1` (configuration not stated) | 5.319 |

For reference, 10 entries once more:

With Cc1c(CNC(=O)Nc2cccc3c2CCN3C)cnn1C the screen gave 4.972%.
With CNC(=O)COc1cccc(CNC(=O)c2c(C)noc2C(C)C)c1 the screen gave 2.874%.
With COc1cccc(-c2ccnc3nc(N4CCCCC4)[nH]c(=O)c23)c1 the screen gave 2.959%.
With CCc1ccc2nc(C)cc(C(=O)N[C@@H]3CNC[C@H]3O)c2c1 the screen gave 6.173%.
With CC1N(C)C(=O)COC12CCN(C(=O)CCc1ccccc1)CC2 (configuration not stated) the screen gave 6.329%.
With COc1cc(N2C[C@@H]3COC[C@]3(C(=O)NC3CC(F)(F)C3)C2)ncn1 the screen gave 4.301%.
With Cc1nc(CN2CCN(C(=O)CCC(=O)c3ccccc3)CC2)no1 the screen gave 1.163%.
With COc1ccc(C(=O)C2CCCN(c3cc(N)ncn3)C2)c(C)c1 (configuration not stated) the screen gave 13.13%.
With CCC(C(=O)NCc1ccncc1)N(c1ccc(OC)cc1)S(C)(=O)=O (configuration not stated) the screen gave -0.4149%.
With Cc1cc(C(=O)NCCC2CCN(C)CC2)ccc1N(C)S(C)(=O)=O the screen gave 2.381%.

Data taken from ChEMBL document CHEMBL3988442, “University of Dundee, Small-Polar-MMV Screening Library” (2021).